This is an account of results in US20240209095A1.

Chains of the proteins cited; added tags and fusions are not shown.
UniProt Q9NZQ7: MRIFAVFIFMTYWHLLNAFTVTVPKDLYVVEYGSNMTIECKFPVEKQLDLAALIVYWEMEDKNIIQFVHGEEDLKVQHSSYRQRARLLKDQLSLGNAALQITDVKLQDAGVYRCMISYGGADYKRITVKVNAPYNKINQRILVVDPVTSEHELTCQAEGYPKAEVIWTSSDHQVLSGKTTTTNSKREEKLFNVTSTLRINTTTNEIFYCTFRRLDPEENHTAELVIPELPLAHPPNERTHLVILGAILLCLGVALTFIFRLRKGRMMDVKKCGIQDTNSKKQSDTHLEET

Assay [1] addresses human PD-L1 (coated on ELISA plate) (human) (UniProt Q9NZQ7). Kind of assay: ELISA, PD-L1 coated 0.1 µg/well.
Assay [2] deals with PDL1-hFc (UniProt Q9NZQ7). Description: ELISA titration on PDL1-hFc. In general terms: In an ELISA, binding on a coated surface is turned into a signal by an enzyme label.
In assay [3] the target is PDL1-hFc (UniProt Q9NZQ7). Description: ELISA, PDL1-hFc coated, antibody at 300 ng/ml.
Assay [4] addresses PDL1-hFc (UniProt Q9NZQ7). Kind of assay: ELISA titration on PDL1-hFc (FIG. 11).

Results are given in words; binding and its absence hold for the method and conditions named. Some entries that bind do so weakly or less than the wild type.

B1: mouse hybridoma anti-human PD-L1 antibody 1G8 (antibody, V domains shown)
VH: QVQLQESGPGLAKPSQTLSLTCSVTGYSITSDYWNWIRKFPGNKLEFMGYISYTGSTYYNPSLKSRISITRDTSKNQYYLQLNSVTTEDTATYYCARRGEWLSPFAYWGQGTLVTVSA
VL: DIVMSQSPSSLGVSVGEKITMSCKSSQSLLYSSNQKNSLAWYQQKPGQSPKLLIYWASTRESGVPDRFTGSGSGTDFTLTISSVKSEDLAVYYCQQYYTYPFTFGAGTNLELK
For B1, the binding result in assay [1] is on record as “binds”.

B2: mouse hybridoma anti-human PD-L1 antibody 3C3 (antibody, V domains shown)
VH: EVQLQESGPGLTKPSQTLSLTCSVTGYSITSDYWDWIRKFPGNKLEYMGYISYTGSTYYNPSLRSRISITRDTSKNQYYLQLSSVTSEDSATYYCARRGGWLSPFVYWGQGTLVTVSA
VL: DTVMSQSPSSLGVSVGERVTLTCKSRQSLLFSSNQKNSLAWYQQKPGQSPKLLIYWASTRESGVPDRFTGSGSGTDFTLTISSVKSEDLAVYYCQQYYTYPFTFGAGTSLELK
As to B2, the binding result in assay [1] is given as “binds”.

B3: 1G8 humanized antibody HuHu2 (antibody, V domains shown)
VH: QVQLQESGPGLVKPSQTLSLTCTVSGYSITSDYWNWIRQPPGKGLEWIGYISYTGSTYYNPSLKSRVTISVDTSKNQFSLKLSSVTAADTAVYYCARRGEWLSPFAYWGQGTLVTVSS
VL: DIVMTQTPLSLSVTPGQPASISCKSSQSLLYSSNQKNSLAWYLQKPGQSPQLLIYWASTRESGVPDRFSGSGSGTDFTLKISRVEAEDVGVYYCQQYYTYPFTFGQGTKLEIK
Turning to B3, the binding entry in the assay with PDL1-hFc [2] was “binds”.

B4: 3C3 humanized antibody HuB2Hu (antibody, V domains shown)
VH: EVQLQESGPGLVKPSQTLSLTCTVSGYSITSDYWDWIRKPPGKGLEYMGYISYTGSTYYNPSLRSRITISRDTSKNQYSLKLSSVTAADTAVYYCARRGGWLSPFVYWGQGTLVTVSS
VL: DIQMTQSPSSLSASVGDRVTITCKSRQSLLFSSNQKNSLAWYQQKPGKAPKLLIYWASTRESGVPSRFSGSGSGTDFTLTISSLQPEDFATYYCQQYYTYPFTFGQGTKLEIK
For the molecule B4, the binding result in the assay with PDL1-hFc [3] is listed as “binds”.

B5: 1G8 humanized antibody HuB2Hu2 (antibody, V domains shown)
VH: EVQLQESGPGLVKPSQTLSLTCTVSGYSITSDYWNWIRKPPGKGLEYMGYISYTGSTYYNPSLKSRITISRDTSKNQYSLKLSSVTAADTAVYYCARRGEWLSPFAYWGQGTLVTVSS
VL: DIVMTQTPLSLSVTPGQPASISCKSSQSLLYSSNQKNSLAWYLQKPGQSPQLLIYWASTRESGVPDRFSGSGSGTDFTLKISRVEAEDVGVYYCQQYYTYPFTFGQGTKLEIK
For B5, the binding result in the assay with PDL1-hFc [4] is recorded as “binds”.

B6: 1G8 humanized antibody HuB2Hu (antibody, V domains shown)
VH: EVQLQESGPGLVKPSQTLSLTCTVSGYSITSDYWNWIRKPPGKGLEYMGYISYTGSTYYNPSLKSRITISRDTSKNQYSLKLSSVTAADTAVYYCARRGEWLSPFAYWGQGTLVTVSS
VL: DIQMTQSPSSLSASVGDRVTITCKSSQSLLYSSNQKNSLAWYQQKPGKAPKLLIYWASTRESGVPSRFSGSGSGTDFTLTISSLQPEDFATYYCQQYYTYPFTFGQGTKLEIK
Take B6: the binding result with PDL1-hFc [4] was “binds”.

B7: 3C3 humanized antibody HuB2Hu2 (antibody, V domains shown)
VH: EVQLQESGPGLVKPSQTLSLTCTVSGYSITSDYWDWIRKPPGKGLEYMGYISYTGSTYYNPSLRSRITISRDTSKNQYSLKLSSVTAADTAVYYCARRGGWLSPFVYWGQGTLVTVSS
VL: DIVMTQTPLSLSVTPGQPASISCKSRQSLLFSSNQKNSLAWYLQKPGQSPQLLIYWASTRESGVPDRFSGSGSGTDFTLKISRVEAEDVGVYYCQQYYTYPFTFGQGTKLEIK
Consider B7, for which the binding entry with PDL1-hFc [3] is reported as “binds”.

B8: 1G8 humanized antibody HuHu (antibody, V domains shown)
VH: QVQLQESGPGLVKPSQTLSLTCTVSGYSITSDYWNWIRQPPGKGLEWIGYISYTGSTYYNPSLKSRVTISVDTSKNQFSLKLSSVTAADTAVYYCARRGEWLSPFAYWGQGTLVTVSS
VL: DIQMTQSPSSLSASVGDRVTITCKSSQSLLYSSNQKNSLAWYQQKPGKAPKLLIYWASTRESGVPSRFSGSGSGTDFTLTISSLQPEDFATYYCQQYYTYPFTFGQGTKLEIK
B8: in the assay with PDL1-hFc [2], the binding entry is “binds”.
